This data set can be described thus: Product characterization of micronized / spray dried powder (XRPD, amorphous content, water content by KF, assay and related substances, SSA). Type of data set: physicochemical. The settings on record: final product, Compound 1 alone, wet polished and spray dried. From the text:
The final spray dried product was characterized for assay and related substances, PSD, water content by KF and XRPD and the results shown in Table 43. The two sub-batches were blended to obtain the final product, with a total final yield was 137 g (68%), see Table 44.

This passage reports Assay and Impurities results from US12703693B2, “Crystalline forms of N-{3-[(1S)-1-{[6-(3,4-dimethoxyphenyl)pyrazin-2-yl]amino}ethyl]phenyl}-5-methylpyridine-3-carboxamide and related products and methods” (GB002, INC., priority 2021, dated 2026).

As for `COc1ccc(-c2cncc(N[C@@H](C)c3cccc(NC(=O)c4cncc(C)c4)c3)n2)cc1OC` [Compound 1, N-{3-[(1S)-1-{[6-(3,4-dimethoxyphenyl)pyrazin-2-yl]amino}ethyl]phenyl}-5-methylpyridine-3-carboxamide], the Assay is reported as 101.1 % LC and the Impurities was found to be 1.2 % area.
